Measured values taken from publication PMC9525679, “Inositol hexakisphosphate is required for Integrator function” (Nature Communications, 2022).
These are yes or no findings as the source states them, for the method shown. In cells and extracts the contact can be indirect. Some entries that bind do so weakly or less than the wild type. For some of these results: Tags and fused reporters may be left off the sequences shown.

Chains of the proteins cited; added tags and fusions are not shown. Lines headed by an entry give the natural chain unless they say otherwise; changes in a name come on top.
UniProt Q9VAH9: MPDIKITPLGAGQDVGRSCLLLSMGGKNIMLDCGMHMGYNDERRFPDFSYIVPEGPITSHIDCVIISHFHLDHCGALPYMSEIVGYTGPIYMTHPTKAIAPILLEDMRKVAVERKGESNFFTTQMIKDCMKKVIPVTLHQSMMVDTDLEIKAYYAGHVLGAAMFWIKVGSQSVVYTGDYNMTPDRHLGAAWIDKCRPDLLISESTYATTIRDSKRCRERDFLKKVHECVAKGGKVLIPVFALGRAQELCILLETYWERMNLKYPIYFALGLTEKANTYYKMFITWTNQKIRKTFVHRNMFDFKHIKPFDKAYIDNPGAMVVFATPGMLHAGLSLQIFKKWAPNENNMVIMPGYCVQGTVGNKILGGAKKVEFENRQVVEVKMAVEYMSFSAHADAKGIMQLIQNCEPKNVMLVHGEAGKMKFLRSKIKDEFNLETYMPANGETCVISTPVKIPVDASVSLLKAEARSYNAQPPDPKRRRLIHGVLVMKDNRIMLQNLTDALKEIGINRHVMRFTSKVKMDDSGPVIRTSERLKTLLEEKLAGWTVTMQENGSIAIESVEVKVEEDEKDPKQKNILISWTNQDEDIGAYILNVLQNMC
UniProt Q9W1C5: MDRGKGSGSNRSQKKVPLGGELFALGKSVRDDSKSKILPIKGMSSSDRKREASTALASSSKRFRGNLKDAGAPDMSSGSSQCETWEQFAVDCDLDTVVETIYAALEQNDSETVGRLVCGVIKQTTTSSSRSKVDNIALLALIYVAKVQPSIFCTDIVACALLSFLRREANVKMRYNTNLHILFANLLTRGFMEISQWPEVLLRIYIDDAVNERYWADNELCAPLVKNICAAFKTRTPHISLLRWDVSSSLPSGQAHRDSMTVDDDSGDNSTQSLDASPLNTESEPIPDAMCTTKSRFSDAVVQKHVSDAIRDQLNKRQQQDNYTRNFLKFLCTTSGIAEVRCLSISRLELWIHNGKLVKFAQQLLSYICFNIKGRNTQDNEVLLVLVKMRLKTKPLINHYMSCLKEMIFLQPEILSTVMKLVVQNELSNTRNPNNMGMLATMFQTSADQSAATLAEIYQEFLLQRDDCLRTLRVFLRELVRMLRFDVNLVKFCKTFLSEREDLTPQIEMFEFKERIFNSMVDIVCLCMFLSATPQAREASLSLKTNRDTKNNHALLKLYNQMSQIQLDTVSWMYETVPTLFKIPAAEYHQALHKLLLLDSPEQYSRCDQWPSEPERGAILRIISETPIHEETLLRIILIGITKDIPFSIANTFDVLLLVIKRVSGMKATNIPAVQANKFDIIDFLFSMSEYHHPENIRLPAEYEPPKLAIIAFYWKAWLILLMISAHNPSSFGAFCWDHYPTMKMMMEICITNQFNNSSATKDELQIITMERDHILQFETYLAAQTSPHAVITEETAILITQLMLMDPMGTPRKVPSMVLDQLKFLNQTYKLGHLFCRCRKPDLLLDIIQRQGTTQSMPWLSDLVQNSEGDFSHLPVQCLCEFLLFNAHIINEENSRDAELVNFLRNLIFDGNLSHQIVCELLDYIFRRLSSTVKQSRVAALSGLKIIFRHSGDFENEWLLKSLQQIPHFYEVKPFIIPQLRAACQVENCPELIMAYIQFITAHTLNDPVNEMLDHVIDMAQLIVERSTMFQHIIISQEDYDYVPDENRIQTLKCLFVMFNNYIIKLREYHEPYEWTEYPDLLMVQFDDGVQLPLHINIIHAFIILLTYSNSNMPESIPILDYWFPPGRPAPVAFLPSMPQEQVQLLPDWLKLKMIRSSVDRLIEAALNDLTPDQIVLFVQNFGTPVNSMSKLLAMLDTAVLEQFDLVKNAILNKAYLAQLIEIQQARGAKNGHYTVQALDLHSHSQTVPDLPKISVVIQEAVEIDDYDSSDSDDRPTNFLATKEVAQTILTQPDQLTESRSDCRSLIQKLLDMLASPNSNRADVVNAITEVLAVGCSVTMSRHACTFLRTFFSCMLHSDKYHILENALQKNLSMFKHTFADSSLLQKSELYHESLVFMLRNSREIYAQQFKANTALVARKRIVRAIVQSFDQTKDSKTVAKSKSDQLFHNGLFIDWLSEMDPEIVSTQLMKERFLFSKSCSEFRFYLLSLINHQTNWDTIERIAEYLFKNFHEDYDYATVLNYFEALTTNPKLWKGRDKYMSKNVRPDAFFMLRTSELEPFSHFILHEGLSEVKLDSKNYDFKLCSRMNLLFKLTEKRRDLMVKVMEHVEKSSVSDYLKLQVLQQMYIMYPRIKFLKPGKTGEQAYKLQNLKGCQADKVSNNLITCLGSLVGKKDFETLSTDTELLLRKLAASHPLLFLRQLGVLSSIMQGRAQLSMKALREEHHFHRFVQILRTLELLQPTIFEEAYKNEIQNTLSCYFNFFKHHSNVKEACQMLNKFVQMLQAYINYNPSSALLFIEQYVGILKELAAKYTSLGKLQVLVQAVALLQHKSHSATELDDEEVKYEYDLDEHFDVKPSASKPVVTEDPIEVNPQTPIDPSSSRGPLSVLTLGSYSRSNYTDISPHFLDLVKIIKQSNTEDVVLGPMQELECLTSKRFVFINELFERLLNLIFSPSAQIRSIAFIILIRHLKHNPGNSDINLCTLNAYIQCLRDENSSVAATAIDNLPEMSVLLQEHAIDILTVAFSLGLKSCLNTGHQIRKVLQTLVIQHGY

T1: FLAG-IntS9-R2E (Drosophila) (Drosophila (D. melanogaster)) (UniProt Q95TS5)
T1 sequence: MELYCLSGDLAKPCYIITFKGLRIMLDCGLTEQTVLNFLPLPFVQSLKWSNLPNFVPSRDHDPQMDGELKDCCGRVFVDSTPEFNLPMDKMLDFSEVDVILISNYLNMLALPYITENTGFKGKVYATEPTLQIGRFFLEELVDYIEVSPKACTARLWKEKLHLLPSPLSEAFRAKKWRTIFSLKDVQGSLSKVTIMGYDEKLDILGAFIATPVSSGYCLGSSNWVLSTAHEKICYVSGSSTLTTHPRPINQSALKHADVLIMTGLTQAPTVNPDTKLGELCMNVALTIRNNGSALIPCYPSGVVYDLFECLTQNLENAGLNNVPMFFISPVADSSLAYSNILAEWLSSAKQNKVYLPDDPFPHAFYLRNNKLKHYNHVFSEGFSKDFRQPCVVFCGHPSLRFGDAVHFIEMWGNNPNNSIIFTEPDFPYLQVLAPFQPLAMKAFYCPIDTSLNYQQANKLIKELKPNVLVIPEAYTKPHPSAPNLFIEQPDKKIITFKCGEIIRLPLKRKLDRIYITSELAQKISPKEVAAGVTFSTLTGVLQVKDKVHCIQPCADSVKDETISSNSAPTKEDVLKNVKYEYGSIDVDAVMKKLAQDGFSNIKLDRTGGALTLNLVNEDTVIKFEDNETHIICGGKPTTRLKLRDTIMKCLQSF

T2: FLAG-IntS9-WT (Drosophila) (Drosophila (D. melanogaster)) (UniProt Q95TS5)
T2 sequence: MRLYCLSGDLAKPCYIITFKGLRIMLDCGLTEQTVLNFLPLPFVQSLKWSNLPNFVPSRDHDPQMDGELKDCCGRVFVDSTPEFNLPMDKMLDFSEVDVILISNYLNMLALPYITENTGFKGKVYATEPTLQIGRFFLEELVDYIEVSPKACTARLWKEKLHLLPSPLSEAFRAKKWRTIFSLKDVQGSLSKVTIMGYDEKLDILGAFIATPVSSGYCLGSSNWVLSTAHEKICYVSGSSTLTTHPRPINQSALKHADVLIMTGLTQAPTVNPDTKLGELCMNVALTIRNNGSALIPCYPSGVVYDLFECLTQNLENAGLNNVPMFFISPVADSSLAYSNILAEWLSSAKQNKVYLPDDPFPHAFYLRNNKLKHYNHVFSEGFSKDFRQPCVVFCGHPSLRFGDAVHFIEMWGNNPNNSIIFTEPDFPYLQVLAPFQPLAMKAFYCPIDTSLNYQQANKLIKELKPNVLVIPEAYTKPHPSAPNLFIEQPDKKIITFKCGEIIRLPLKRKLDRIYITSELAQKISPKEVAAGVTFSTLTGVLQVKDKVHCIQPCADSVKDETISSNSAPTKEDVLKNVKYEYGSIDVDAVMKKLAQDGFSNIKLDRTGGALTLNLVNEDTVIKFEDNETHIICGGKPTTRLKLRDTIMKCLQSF


Key:
Assay in all cases: co-IP; anti-Flag M2 affinity agarose with 1 mg nuclear extract of DL1 cells stably expressing FLAG-tagged proteins; 20 mM HEPES pH 7.4, 100 mM KCl, 10% glycerol, 0.1% NP-40; 2 h at 4 °C, five washes; western blot, normalized to FLAG signals
[1] = target: FLAG-IntS11-WT (Drosophila) (Drosophila (D. melanogaster)) (UniProt Q9VAH9)
[2] = target: FLAG-IntS11-K462E (Drosophila) (Drosophila (D. melanogaster)) (UniProt Q9VAH9)
[3] = target: T1, FLAG-IntS9-R2E (Drosophila) (Drosophila (D. melanogaster))
[4] = target: T2, FLAG-IntS9-WT (Drosophila) (Drosophila (D. melanogaster))

| binding [1] | binding [2] | binding [3] | binding [4] | Molecule |
| --- | --- | --- | --- | --- |
| binds | binds | binds | binds | IntS1 (Drosophila, endogenous) (from UniProt Q9W1C5 1-2053) |
| – | – | binds | binds | IntS11 (Drosophila, endogenous) (from UniProt Q9VAH9 1-597) (enzyme) |
| binds | binds | binds | binds | IntS8 (Drosophila, endogenous) (protein, UniProt A1ZAK1 1-1007) MDDPLKPKPVPLAAETVLWFEFLLDPHKITQHLQRPHPEPSAMELIVQFISMTPNTAQESVGTPGSDLQNLNQTPSNSGPIPGVVGGAPAPTTPTASGGVGMPHSPQRPAEKGLQLNRKQLALKILELKVATWLKWDLDALEKNLPVIMQLALLRDLCTISYGCSLSIPLPNDFDARISAAGNERAARFALTIYHRMLLRMQLIKEQALKAPRPQNTMYQTVDQLQQFLDTPTQPSIEYLQQLCASTKPFYIFHYDSFVPLRCDDIGNGQNYDVMHLITPQELRAQLHYELAQYYLYTKQYVLAREAAAACNTNLQAIPPQTTLYYCHIRPSELEGLLQACGISAEEQSLLEKFQQSLLNNYTDIVSILRMDNRRREIPFISRRQVELDIEGSISTGILKETVQLQLQVAALNVVRNIFEWGSIFGSVEYFEKYRELDCLPPLVEALQEMLPHCTFKEQAALKHFLIDCLLHQGGQSRQLLQTVRGFGLFSSDELQDIDEQMLQATPPVPTNSLASLSDWMCHSKMSRVDVGALERQLISCTNANTVRILLVKLCATAPGKPLWAINPSWDVPQPLKTLIMAMPVSFLQDFSYVLLGKARELATRGNYIDAVSMLSVLKSENQRQEMAANVQLMCKLITWEILHIQITQCLEEWHQKPLDLQSLGGRCKQCLGALQAGDSIVPRPDILESCAIMLLNLTEFPPLLYLDKRAGPLELPLAFAATFIEMEKMKGPKKVCRDAWELMLSMFLNVPKRGSSGVGGISSLQAFLQRIRHQSVFGLAISMIGKVHNILKDDPNHDLSCEYMQLWPTSINNPVSYSLRSVCETLQWLLSEALSYYPQTISWLKMKGDLDLAIGNNESAMRCYVNALVTGTDYCTMPLQRNVADDYVIRKMIRCAANLGCHMQATVLCQFLDEIDYGIVFKNLSEKSSNFTDAMDAYYSCIWDTTLLEFIVNLHAKRGEHSRKLEAISMMGTLELNANNNEEIKRESAMVRKSRFLRALAKQYLL |
| binds | binds | binds | binds | IntS4 (Drosophila, endogenous) (protein, UniProt Q9W3E1 1-1022) MALAIKKRVGTYVETVDGSPPVKKLRLQTLAADAKGGKSGKVGNVERKLTALNQLDAYVGNLPAGALVLPTGTPVASTGAPSTGVIGNPPAAATGAPPMTAANSRELLELLVKITDEISYEDVEMGELKEVASKIFQLYQLQERDSDTSIRVKLLELLSGLGCECATEQALTMIIDYFIFLLRKEVSQKVLAQGMMCLFRIGERRKHMLPISYKTQVAHLAKEQLRSGSAHTQKNAMLVIGRFATKMEGERHYVWKLAFYIDSQDSSVRAQALHALLTLGERGSQLPAVLYKRAVEAMKDDYECVRKEALQLVFMLGNRHPDYILPSDRQQEELRMIDAAFSKVCEALCDLSLQIRVLAAELLGGMTAVSREFLHQTLDKKLMSNLRRKRTAHERGARLVASGEWSSGKRWADDAPQEHLDAQSISIIASGACGALIHGLEDEFLEVRTAAVASMCKLALSRPDFAVTSLDFLVDMFNDEIEDVRLKAIYSLTAIAKHIVLREDQLEIMLGSLEDYSVDVREGLHLMLGACRVSTQTCLLMVVQKLLDVLAKYPQDRNSTYACMRKIGQKHPHLVMAVAVHLLYVHPFFETPERDVEDPAYLCVLILVFNAAEHLVPIISLLPTATHRHYAYLRDSMPNLVPQLPIEGASSASATHRIDSAMHQAGSSAEYLQMILSHIEEIFTMTDERLELLQTAQSNLQRLGSIDAGMYGTSNFLETFLAAQIQIEQMQRCASTQRSRVPLKESLAALIRNCLKLQHTFSGLNYGDILQVKQLRLRACALHLVLVVRDRSQSALGPCQMLLQTAGDISEFIKANTKDEEEKPPVVETDMPMKESVSRDAQPDSFTRQLLIKLDGISDPKPGRVFREILPLVQQAPPLALPPANDKIRRCVANILEPCPLQSQDNVIKVTAGLIAAVPFVAEIDNLLESQKADMRIKIKYPDQHMHTVVPKQSDFKPIMTEQGEHKTNVRLRTTILLSHSVWTESSLVEIQLCLAVRPGSELELCKPAKVLFAPKPVRRGI |
| binds | binds | – | – | IntS9 (Drosophila, endogenous) (protein, UniProt Q95TS5 1-654) MRLYCLSGDLAKPCYIITFKGLRIMLDCGLTEQTVLNFLPLPFVQSLKWSNLPNFVPSRDHDPQMDGELKDCCGRVFVDSTPEFNLPMDKMLDFSEVDVILISNYLNMLALPYITENTGFKGKVYATEPTLQIGRFFLEELVDYIEVSPKACTARLWKEKLHLLPSPLSEAFRAKKWRTIFSLKDVQGSLSKVTIMGYDEKLDILGAFIATPVSSGYCLGSSNWVLSTAHEKICYVSGSSTLTTHPRPINQSALKHADVLIMTGLTQAPTVNPDTKLGELCMNVALTIRNNGSALIPCYPSGVVYDLFECLTQNLENAGLNNVPMFFISPVADSSLAYSNILAEWLSSAKQNKVYLPDDPFPHAFYLRNNKLKHYNHVFSEGFSKDFRQPCVVFCGHPSLRFGDAVHFIEMWGNNPNNSIIFTEPDFPYLQVLAPFQPLAMKAFYCPIDTSLNYQQANKLIKELKPNVLVIPEAYTKPHPSAPNLFIEQPDKKIITFKCGEIIRLPLKRKLDRIYITSELAQKISPKEVAAGVTFSTLTGVLQVKDKVHCIQPCADSVKDETISSNSAPTKEDVLKNVKYEYGSIDVDAVMKKLAQDGFSNIKLDRTGGALTLNLVNEDTVIKFEDNETHIICGGKPTTRLKLRDTIMKCLQSF |
